These are yes or no findings as the source states them, for the method shown. For some assays here: In cells and extracts the contact can be indirect. Some binding calls cover weakened binding; strength is not graded here. Sequences can lack the tags named with a protein.
Key:
[1] = molecular target: T1, 6xMyc-Sema5A^ΔTSR-GFP (rat) (UniProt D3ZTD8); test: co-IP; HEK293T cells co-transfected (low-density cultures); lysis in 20 mM TrisHCl pH 7.5, 150 mM NaCl, 1% CHAPS, 1% Triton X-100; IP with mouse anti-GFP, anti-myc immunoblot
T1 sequence: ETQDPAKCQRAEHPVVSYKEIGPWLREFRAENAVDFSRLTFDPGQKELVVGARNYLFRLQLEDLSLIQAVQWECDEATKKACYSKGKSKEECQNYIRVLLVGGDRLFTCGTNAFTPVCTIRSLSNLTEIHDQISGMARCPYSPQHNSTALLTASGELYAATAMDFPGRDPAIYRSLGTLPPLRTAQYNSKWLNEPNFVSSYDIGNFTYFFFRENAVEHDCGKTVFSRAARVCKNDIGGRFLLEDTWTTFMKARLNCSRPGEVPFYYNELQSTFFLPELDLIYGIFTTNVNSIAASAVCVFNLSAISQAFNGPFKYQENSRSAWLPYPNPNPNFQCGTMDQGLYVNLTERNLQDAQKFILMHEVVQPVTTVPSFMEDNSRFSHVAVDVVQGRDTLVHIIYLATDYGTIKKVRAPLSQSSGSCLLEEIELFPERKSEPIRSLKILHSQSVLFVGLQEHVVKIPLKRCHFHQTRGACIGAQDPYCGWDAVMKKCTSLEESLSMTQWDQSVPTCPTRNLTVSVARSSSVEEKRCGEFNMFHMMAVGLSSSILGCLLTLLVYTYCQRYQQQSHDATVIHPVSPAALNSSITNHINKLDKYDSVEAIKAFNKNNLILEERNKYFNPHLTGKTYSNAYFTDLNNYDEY

Amino acid sequences for entries named in this document (tags omitted). A change or cut given only in a name is not applied to a line headed by its entry. Chains listed by the source or under a name are the forms on record and can include a tag or linker. Residues count along the entry.
UniProt P70206: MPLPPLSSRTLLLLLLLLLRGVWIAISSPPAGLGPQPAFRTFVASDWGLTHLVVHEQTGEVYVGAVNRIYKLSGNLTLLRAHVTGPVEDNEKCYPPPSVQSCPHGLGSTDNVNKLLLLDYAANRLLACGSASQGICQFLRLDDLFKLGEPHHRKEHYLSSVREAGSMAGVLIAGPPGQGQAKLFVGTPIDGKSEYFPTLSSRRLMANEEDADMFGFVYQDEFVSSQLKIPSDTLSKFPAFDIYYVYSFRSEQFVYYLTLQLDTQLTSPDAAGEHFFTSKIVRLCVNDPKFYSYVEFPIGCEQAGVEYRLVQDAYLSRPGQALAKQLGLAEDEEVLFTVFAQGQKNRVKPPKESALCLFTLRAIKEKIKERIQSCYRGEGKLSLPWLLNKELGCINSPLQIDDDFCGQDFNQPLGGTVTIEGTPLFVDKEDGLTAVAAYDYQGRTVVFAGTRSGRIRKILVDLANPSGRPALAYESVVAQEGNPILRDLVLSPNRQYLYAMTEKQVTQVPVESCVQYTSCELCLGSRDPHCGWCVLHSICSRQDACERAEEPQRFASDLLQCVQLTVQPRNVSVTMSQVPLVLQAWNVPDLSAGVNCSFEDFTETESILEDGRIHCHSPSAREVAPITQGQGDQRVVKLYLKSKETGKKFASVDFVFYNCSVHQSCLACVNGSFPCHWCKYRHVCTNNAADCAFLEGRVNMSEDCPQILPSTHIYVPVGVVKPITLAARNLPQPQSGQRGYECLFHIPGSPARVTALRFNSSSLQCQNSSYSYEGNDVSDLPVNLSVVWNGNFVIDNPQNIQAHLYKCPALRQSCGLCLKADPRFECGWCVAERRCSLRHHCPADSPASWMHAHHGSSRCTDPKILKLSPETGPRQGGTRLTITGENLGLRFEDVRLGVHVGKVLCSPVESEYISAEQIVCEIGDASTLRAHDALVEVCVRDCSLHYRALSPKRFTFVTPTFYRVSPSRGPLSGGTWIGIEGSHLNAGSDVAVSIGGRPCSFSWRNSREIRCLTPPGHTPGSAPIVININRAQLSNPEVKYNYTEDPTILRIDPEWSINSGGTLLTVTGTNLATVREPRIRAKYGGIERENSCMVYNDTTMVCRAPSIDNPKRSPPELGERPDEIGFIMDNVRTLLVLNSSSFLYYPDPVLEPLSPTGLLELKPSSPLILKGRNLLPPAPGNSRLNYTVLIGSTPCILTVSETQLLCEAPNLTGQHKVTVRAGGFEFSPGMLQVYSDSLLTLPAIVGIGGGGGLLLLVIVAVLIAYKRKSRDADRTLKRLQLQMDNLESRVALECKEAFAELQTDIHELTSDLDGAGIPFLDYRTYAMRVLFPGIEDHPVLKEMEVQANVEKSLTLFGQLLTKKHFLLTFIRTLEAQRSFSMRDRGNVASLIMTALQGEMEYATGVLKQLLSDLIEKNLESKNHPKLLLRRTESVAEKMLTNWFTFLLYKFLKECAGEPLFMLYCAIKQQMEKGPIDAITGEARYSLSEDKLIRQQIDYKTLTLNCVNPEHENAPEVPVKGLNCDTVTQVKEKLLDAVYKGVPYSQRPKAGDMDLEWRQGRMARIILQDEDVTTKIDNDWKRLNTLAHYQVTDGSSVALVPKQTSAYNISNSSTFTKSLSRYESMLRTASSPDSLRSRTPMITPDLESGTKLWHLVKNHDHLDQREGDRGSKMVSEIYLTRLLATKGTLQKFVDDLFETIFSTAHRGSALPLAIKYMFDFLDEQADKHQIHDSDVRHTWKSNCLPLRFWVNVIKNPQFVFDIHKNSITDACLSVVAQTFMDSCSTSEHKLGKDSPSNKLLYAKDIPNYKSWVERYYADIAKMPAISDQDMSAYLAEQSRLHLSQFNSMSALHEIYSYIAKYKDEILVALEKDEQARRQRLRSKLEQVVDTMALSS
full-length PlexA1 with an N-terminal 6xMyc tag: residues 28-1894 of P70206
PlexA1 lacking the cytoplasmic domain (PlexA1^Δcyt): residues 28-1283 of P70206

[2] = molecular target: full-length PlexA2 with an N-terminal 6xMyc tag (mouse) (UniProt P70207); test: binding of AP-clustered Fc fusion protein to transfected cells (cis competition); Sema5A-Fc super-clustered with anti-Fc-AP on COS7 cells co-expressing PlexA2 with GFP, Sema6D, Sema5A, S5A^Δcyt or S5A^ΔTSR; bound ligand quantified; only the binder purified
[3] = molecular target: endogenous PlexA1 on mouse hippocampal neurons (mouse (endogenous in primary hippocampal neurons)) (UniProt P70206); test: ligand bound to cells, detected by Western blot; hippocampal neurons from WT, Plxna1-/- and Plxna2-/- mice incubated with Sema5A-Fc (50 nM) for 1 hr, rinsed extensively, lysed, Western blot; only the binder purified
[4] = molecular target: endogenous PlexA2 on mouse hippocampal neurons (mouse (endogenous in primary hippocampal neurons)) (UniProt P70207); test: as above
[5] = molecular target: endogenous PlexA1 on mouse hippocampal neurons (mouse (endogenous in primary hippocampal neurons)) (UniProt P70206); test: binding of AP-clustered Fc fusion protein to primary neurons; non-transfected primary mouse hippocampal neurons of WT and knock-out mice, Fc fusion protein preclustered with anti-human IgG-AP, NeuroBasal medium, NBT/BCIP; only the binder purified
[6] = molecular target: endogenous PlexA2 on mouse hippocampal neurons (mouse (endogenous in primary hippocampal neurons)) (UniProt P70207); test: as above
[7] = molecular target: full-length PlexA1 with an N-terminal 6xMyc tag (mouse) (UniProt P70206); test: binding of AP-clustered Fc fusion protein to transfected cells; COS7 cells transfected with PlexA or semaphorin constructs, incubated 75 min in OptiMEM with Fc fusion protein preclustered with anti-human IgG conjugated to alkaline phosphatase; rinsed, fixed, developed with NBT/BCIP; only the binder purified
[8] = molecular target: full-length PlexA2 with an N-terminal 6xMyc tag (mouse) (UniProt P70207); test: as above
[9] = molecular target: T2, PlexA2 lacking the cytoplasmic domain (PlexA2^Δcyt) (mouse) (UniProt P70207); test: as above
T2 sequence: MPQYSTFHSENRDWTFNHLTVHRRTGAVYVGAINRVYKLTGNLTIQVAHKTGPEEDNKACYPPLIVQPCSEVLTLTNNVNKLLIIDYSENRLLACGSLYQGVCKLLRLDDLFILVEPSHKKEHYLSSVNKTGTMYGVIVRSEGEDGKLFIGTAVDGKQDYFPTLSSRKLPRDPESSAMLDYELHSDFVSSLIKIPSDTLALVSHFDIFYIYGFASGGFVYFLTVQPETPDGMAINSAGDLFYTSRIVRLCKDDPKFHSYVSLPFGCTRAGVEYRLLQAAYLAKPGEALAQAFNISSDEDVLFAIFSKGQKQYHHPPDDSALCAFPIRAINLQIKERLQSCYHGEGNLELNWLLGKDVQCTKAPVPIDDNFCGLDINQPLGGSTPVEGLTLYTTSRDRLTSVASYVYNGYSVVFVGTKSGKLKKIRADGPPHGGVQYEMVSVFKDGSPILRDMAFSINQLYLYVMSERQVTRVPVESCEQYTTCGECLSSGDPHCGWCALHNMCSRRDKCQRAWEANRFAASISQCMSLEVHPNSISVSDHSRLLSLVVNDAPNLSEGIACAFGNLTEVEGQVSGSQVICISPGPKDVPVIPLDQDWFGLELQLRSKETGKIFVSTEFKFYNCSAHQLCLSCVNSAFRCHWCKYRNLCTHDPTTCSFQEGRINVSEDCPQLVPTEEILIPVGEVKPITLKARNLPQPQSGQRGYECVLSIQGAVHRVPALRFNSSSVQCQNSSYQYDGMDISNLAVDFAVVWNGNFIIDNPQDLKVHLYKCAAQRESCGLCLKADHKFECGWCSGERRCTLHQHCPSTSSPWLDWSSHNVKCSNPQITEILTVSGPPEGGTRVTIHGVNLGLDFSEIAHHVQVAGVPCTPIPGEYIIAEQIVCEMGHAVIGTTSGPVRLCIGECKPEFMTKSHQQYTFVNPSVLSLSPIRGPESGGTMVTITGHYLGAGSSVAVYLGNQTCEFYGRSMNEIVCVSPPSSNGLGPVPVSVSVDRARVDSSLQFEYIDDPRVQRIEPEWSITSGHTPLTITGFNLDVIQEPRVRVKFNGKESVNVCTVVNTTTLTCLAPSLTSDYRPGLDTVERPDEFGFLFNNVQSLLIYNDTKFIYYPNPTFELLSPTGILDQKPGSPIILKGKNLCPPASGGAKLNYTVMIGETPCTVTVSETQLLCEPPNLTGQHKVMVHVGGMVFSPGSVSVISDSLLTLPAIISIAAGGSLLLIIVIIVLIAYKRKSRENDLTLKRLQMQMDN

[10] = molecular target: PlexA2 RasGAP-deficient mutant (PlexA2^RR) (mouse) (UniProt P70207); test: as above
[11] = molecular target: PlexA1 lacking the cytoplasmic domain (PlexA1^Δcyt) (mouse) (UniProt P70206); test: as above

Measured: binding

B1: PlexA2 lacking the cytoplasmic domain (PlexA2^Δcyt) (receptor, UniProt P70207 35-1280)
chain: T2 sequence
binds: [1]

B2: Sema5A-Fc (Sema5A ectodomain fused to Fc) (Fc fusion, UniProt D3ZTD8 23-961)
chain: ETQDPAKCQRAEHPVVSYKEIGPWLREFRAENAVDFSRLTFDPGQKELVVGARNYLFRLQLEDLSLIQAVQWECDEATKKACYSKGKSKEECQNYIRVLLVGGDRLFTCGTNAFTPVCTIRSLSNLTEIHDQISGMARCPYSPQHNSTALLTASGELYAATAMDFPGRDPAIYRSLGTLPPLRTAQYNSKWLNEPNFVSSYDIGNFTYFFFRENAVEHDCGKTVFSRAARVCKNDIGGRFLLEDTWTTFMKARLNCSRPGEVPFYYNELQSTFFLPELDLIYGIFTTNVNSIAASAVCVFNLSAISQAFNGPFKYQENSRSAWLPYPNPNPNFQCGTMDQGLYVNLTERNLQDAQKFILMHEVVQPVTTVPSFMEDNSRFSHVAVDVVQGRDTLVHIIYLATDYGTIKKVRAPLSQSSGSCLLEEIELFPERKSEPIRSLKILHSQSVLFVGLQEHVVKIPLKRCHFHQTRGACIGAQDPYCGWDAVMKKCTSLEESLSMTQWDQSVPTCPTRNLTVDGSFGPWSPWTPCTHTDGTAVGSCLCRSRSCDSPAPQCGGWQCEGPRMEITNCSRNGGWTPWTSWSPCSTTCGIGFQVRQRSCSNPTPRHGGRVCVGQNREERYCNEHLLCPPHVFWTGWGPWERCTAQCGGGIQARRRTCENGPDCAGCNVEYQPCNTNACPELKKTTPWTPWTPVNISDNGGHYEQRFRYTCKARLPDPNLLEVGRQRIEMRYCSSDGTSGCSTDGLSGDFLRAGRYSAHTVNGAWSAWTSWSQCSRDCSRGIRNRKRVCNNPEPKYGGMPCLGPSLEFQECNILPCPVDGVWSCWSSWSKCSATCGGGHYMRTRSCTNPAPAYGGDICLGLHTEEALCNTQTCPENWSEWSEWSVCDASGTQVRTRQCILLFPVGSQCSGNTTESRPCVFDSNFIPEVSVARSSSVEEK
binds: [2] | [3] | [4] | [5] | [6] | [7] | [8] | [9] | [10] | [11]
